No constants are given. Whether binding was seen depends on the method and setting. Blank lines part the entries; values can stand above or below the binder they belong to.
Key:
lysozyme [1] = test: ELISA, antigen coated at 5 µg/ml, fluorescence read-out (FIG. 12)
lysozyme [2] = test: ELISA; antigen coated at 5 µg/ml, anti-human Fab alkaline phosphatase conjugate, fluorescence Ex/Em 430/535 nm
lysozyme [3] = test: ELISA; antigen coated at 5 µg/ml, anti-murine Fab alkaline phosphatase conjugate, fluorescence Ex/Em 430/535 nm

B1: MOR03077 human IgG1 (antibody, V domains shown)
VH: QVQLVQSGAEVKKPGASVKVSCKASGYTFTSYSINWVRQAPGQGLEWMGYIDPNRGNTNYAQKFQGRVTMTRDTSISTAYMELSSLRSEDTAVYYCAREYIYFIHGMLDFWGQGTLVTVSS
VL: DIVMTQSPLSLPVTPGEPASISCRSSQSLLFIDGNNYLNWYLQKPGQSPQLLIYLGSNRASGVPDRFSGSGSGTDFTLKISRVEAEDVGVYYCQQYSSKSATFGQGTKVEIKR
notes: also called MAb#1
binding (lysozyme [1]): no binding (tested: 10 µg/ml antibody)
binding (lysozyme [2]): no binding (tested: 10 µg/ml)

B3: MOR03079 human-mouse chimeric IgG2a (antibody, V domains shown)
VH: QVQLVESGGGLVQPGGSLRLSCAASGFTFSNYGMHWVRQAPGKGLEWVSNIRSDGSWTYYADSVKGRFTISRDNSKNTLYLQMNSLRAEDTAVYYCARRYWSKSHASVTDYWGQGTLVTVSS
VL: DIQMTQSPSSLSASVGDRVTITCRASQDISAFLNWYQQKPGKAPKLLIYKVSNLQSGVPSRFSGSGSGTDFTLTISSLQPEDFATYYCQQAYSGSITFGQGTKVEIKR
notes: Chimeric IgG2a: human variable regions of MOR03079 fused to murine Fc gamma 2a constant regions; also called MAb#2 (chimeric: human variable domaine/murine Fc 2a); mu03079
binding (lysozyme [1]): no binding (tested: 10 µg/ml antibody)
binding (lysozyme [3]): no binding (tested: 10 µg/ml)

Further lines, results first:

binding (lysozyme [1]): no binding (tested: 10 µg/ml antibody)
B2: MOR03077 human-mouse chimeric IgG2a (antibody, V domains shown)
VH: B1 VH
VL: B1 VL

binding (lysozyme [1]): no binding (tested: 10 µg/ml antibody)
binding (lysozyme [2]): no binding (tested: 10 µg/ml)
B4: MOR03079 human IgG1 (antibody, V domains shown)
VH: B3 VH
VL: B3 VL
notes: also called MAb#2

— patent US20120076782A1 (MorphoSys, published 2012)
